# Assay: Plasma Na+ and osmolality measurements
# Assay type: in vivo, mice
# Details: after injection of 300 μL 2M Mannitol
structure (smiles),measurement,value
OC[C@@H](O)[C@@H](O)[C@H](O)[C@H](O)CO [Mannitol],plasma Na+ concentration,but not Na+ concentration was increased
same,plasma osmolality,increased

# Source: patent US10960084B2, “Modulation of fluid intake” (California Institute of Technology, priority 2018, dated 2021)
